In the assay the target is MYC-RHOU (mouse) (UniProt Q9EQT3). Put plainly: co-IP; primary mouse keratinocytes transfected with empty vector or Myc-Rhou; Pierce IP Lysis Buffer; 500 μg of protein with anti-MYC antibody overnight, Protein A/G agarose; blot with ARHGEF7 antibody.

Chains of the proteins cited; added tags and fusions are not shown.
UniProt Q9EQT3: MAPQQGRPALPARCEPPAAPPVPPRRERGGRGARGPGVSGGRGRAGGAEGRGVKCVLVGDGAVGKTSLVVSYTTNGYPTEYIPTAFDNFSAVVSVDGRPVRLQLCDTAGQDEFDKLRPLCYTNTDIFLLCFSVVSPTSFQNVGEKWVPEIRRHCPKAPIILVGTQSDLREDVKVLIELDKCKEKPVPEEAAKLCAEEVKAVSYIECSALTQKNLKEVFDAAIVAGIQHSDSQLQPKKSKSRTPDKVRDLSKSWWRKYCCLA

Results are given in words; binding and its absence hold for the method and conditions named. Binding seen in cells or lysates may run through a third protein. Some entries that bind do so weakly or less than the wild type.

B1: ARHGEF7 (β-PIX) (protein, UniProt Q9ES28 1-862)
chain: MNSAEQTVTWLITLGVLESPKKTISDPEVFLQASLKDGVVLCRLLERLLPGTIEKVYPEPRNESECLSNIREFLRACGASLRLETFDANDLYQGQNFNKVLSSLVTLNKVTADIGLGSDSVCARPSSHRIKSFDSLGSQSSHSRTSKLLQSQYRSLDMTDNTNSQLVVRAKFNFQQTNEDELSFSKGDVIHVTRVEEGGWWEGTHNGRTGWFPSNYVREIKPSEKPVSPKSGTLKSPPKGFDTTAINKSYYNVVLQNILETEHEYSKELQSVLSTYLRPLQTSDKLSSANTSYLMGNLEEISSFQQVLVQSLEECTKSPEAQQRVGGCFLSLMPQMRTLYLAYCANHPSAVSVLTEHSEDLGEFMETKGASSPGILVLTTGLSKPFMRLDKYPTLLKELERHMEDYHPDRQDIQKSMTAFKNLSAQCQEVRKRKELELQILTEPIRSWEGDDIKTLGSVTYMSQVTIQCAGSEEKNERYLLLFPNLLLMLSASPRMSGFIYQGKLPTTGMTITKLEDSENHRNAFEISGSMIERILVSCTSQQDLHEWVEHLQKQTKVTSVSNPTIKPHSVPSHTLPSHPLTPSSKHADSKPVALTPAYHTLPHPSHHGTPHTTISWGPLEPPKTPKPWSLSCLRPAPPLRPSAALCYKEDLSKSPKTMKKLLPKRKPERKPSDEEFAVRKSTAALEEDAQILKVIEAYCTSAKTRQTLNSTWQGTDLMHNHVLADDDQSSLDSLGRRSSLSRLEPSDLSEDSEYDSIWTAHSYRMGSASRSRKESAPQVLLPEEEKIIVEETKSNGQTVIEEKSLVDTVYALKDEVQELRQDNKKMKKSLEEEQRARKDLEKLVRKVLKNMNDPAWDETNL
Regarding B1, the binding result is reported as “binds”.
